Data published in PubChem BioAssay AID2685 (National Center for Advancing Translational Sciences (NCATS), 2010).
Among all 320,000 compounds or so, about 2,100 (0.66%) were called active. This list was built around the results that the source calls inconclusive (neither active nor inactive); the mix of calls is not that of the screen. Calls follow the shape of the dose curve; as a rule, active = well fitted inhibition curve with a large enough effect in the signal ratio, with a control signal flat (not every such curve was filed as active); inconclusive = small, poorly fitted or top-dose-only effect, or effect the other way, or a change in a side signal; inactive = flat fitted curve, though single readings scatter; the % refers to the signal ratio. Where the call is inconclusive, the potency comes from a doubtful curve fit.

Assay: qHTS Assay for Lipid Storage Modulators in Drosophila S3 Cells
Conditions: BODIPY lipid droplet fluorescence, 18-24 h, cells fed with added oleic acid; lipid storage change, negative = inhibition: at 46.1 µM (top of the series) unless noted
Method in brief: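 Drosophila S3 cells got compounds at several concentrations plus oleic acid (400 uM solution). Laser-scanning cytometry with 488 nm excitation read lipid droplets at 500-530 nm and cells at 575-640 nm. Percent activity was relative to 20 uM Triacsin C.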
% is scaled to controls: 0 for no effect and ±100 for the full control effect; potency is read from the fitted curve at half-maximal effect.

SMILES | Potency | lipid storage change, negative = inhibition
CC1CCC(N2CCNCC2)CC1 (configuration not stated) | inconclusive: 6.51 µM [falling, single point] | 
Cc1cccc(N2CC(C(=O)Nc3nnc(SCCC4OCCO4)s3)CC2=O)c1 (configuration not stated) |  | inconclusive: 18.7%
CN1CCN(C(=O)CN(C)S(=O)(=O)c2cc(Cl)ccc2Cl)CC1 |  | inconclusive: 71.1%
CCc1ccc(-c2cc(C)no2)cc1S(=O)(=O)N1CCC(C)CC1 |  | inconclusive: -29.4%
CCCCCCN1C=CC=C/C1=C/C=C(C#N)C#N | inconclusive: 29.1 µM [cytotoxic, single point] | 
Cc1ccccc1NS(=O)(=O)c1cc(C(=O)N2CCCC2)ccc1Cl | inconclusive: 0.103 µM [falling, full curve, poor fit] | 
Cn1c(SCc2nc3ccccc3n2CCO)nc2ccccc21 |  | inconclusive: -20.4%
Cc1nn(-c2ccccc2)c2sc(C(=O)NNC(=O)COc3cccc4ccccc34)cc12 |  | inconclusive: -7.31%
Cc1c(NC(=O)COc2ccc3ccc(=O)oc3c2)c(=O)n(-c2ccccc2)n1C |  | inconclusive
CCN1CCN(c2ccc(S(=O)(=O)N3CCCCC3)cc2NC(=O)COc2ccc(Cl)cc2)CC1 |  | inconclusive: 42.2%
Nc1ccccc1-c1ccccc1N |  | inactive
C/C(=N\NC(=S)NCc1ccccc1)c1ccc2ccccc2c1 | inconclusive: 3.66 µM [activator, partial curve] | 
Cn1c(SCC(=O)N2CCCCC2)nc2cccnc21 |  | inconclusive: 19.5%
CCOC(=O)C1(Cc2ccccc2Cl)CCN(Cc2csc(C(C)=O)c2)CC1 |  | inconclusive: 22.6%
NC(=O)c1ccc(Nc2ccc([N+](=O)[O-])cc2[N+](=O)[O-])cc1 |  | inconclusive: -25.5%
CC(C)CNS(=O)(=O)c1ccc(CCC(=O)N2CCOCC2)cc1 |  | inconclusive: 14.3%
Cc1ccsc1C(=O)Nc1ccc2c(c1)OCCO2 |  | inactive
COc1ccc(CC(=O)NCC2CCCN(Cc3cccc(SC)c3)C2)cc1 (configuration not stated) | inconclusive: 3.26 µM [activator, partial curve] | 
Cc1ccc(NC(=O)CSc2nc3ccccc3c(=O)n2CCCC(=O)N2CCCC2)cc1 | inconclusive: 0.92 µM [activator, partial curve] | 
Cc1[nH]c2ccc(C(=O)NCCCN3CCCCC3)cc2c1C |  | inconclusive: 45.1%
CN(C)CCNC(=O)/C(=C/c1ccc(-c2ccc(Cl)cc2)o1)NC(=O)c1ccccc1 | inconclusive: 0.116 µM [falling, full curve, poor fit] | 
CNS(=O)(=O)c1ccc(NC(=O)C2c3ccccc3Oc3ccccc32)cc1 |  | inconclusive: -23.7%
CCOc1ccccc1N1CCN(C(=O)Nc2ccc(F)c(Cl)c2)CC1 |  | inconclusive: 3.71%
COc1ccc(OC)c(CCNC(=O)Cn2cccc2C(=O)c2ccccc2C)c1 |  | inactive
NC(=NCCc1ccccc1)NS(=O)(=O)c1ccccc1 |  | inactive
Cc1ccc(NC(=O)C2C3C=CC4(O3)C2C(=O)N(CCCN2CCCC(C)C2)C4C(=O)NC2CCCCC2)cc1 (configuration not stated) | inconclusive: 23.1 µM [falling, single point] | 

Part of the list above in order of number of heavy atoms, rising.
SMILES | Potency | lipid storage change, negative = inhibition
CC1CCC(N2CCNCC2)CC1 (configuration not stated) | inconclusive: 6.51 µM [falling, single point] | 
Nc1ccccc1-c1ccccc1N |  | inactive
Cc1ccsc1C(=O)Nc1ccc2c(c1)OCCO2 |  | inactive
Cn1c(SCc2nc3ccccc3n2CCO)nc2ccccc21 |  | inconclusive: -20.4%
COc1ccc(OC)c(CCNC(=O)Cn2cccc2C(=O)c2ccccc2C)c1 |  | inactive
Cc1ccc(NC(=O)CSc2nc3ccccc3c(=O)n2CCCC(=O)N2CCCC2)cc1 | inconclusive: 0.92 µM [activator, partial curve] | 
Cc1ccc(NC(=O)C2C3C=CC4(O3)C2C(=O)N(CCCN2CCCC(C)C2)C4C(=O)NC2CCCCC2)cc1 (configuration not stated) | inconclusive: 23.1 µM [falling, single point] | 

The listing continues:

SMILES | Potency | lipid storage change, negative = inhibition
Cc1cc(NC(=O)OC2CCCCC2)ccc1[N+](=O)[O-] | inconclusive: 0.206 µM [activator, single point] | 
O=C(O)CCCNC(=O)CCCn1nnc2ccccc2c1=O |  | inconclusive: -26.4%
N#C/C(=N\O)c1nc2ccccc2[nH]1 |  | inconclusive: -12.5%
O=C(CCl)N1N=C(c2ccco2)CC1c1cccs1 (configuration not stated) | active: 23.1 µM | 
Cc1cc(-c2nc(-c3ccc(C(C)(C)C)cc3)no2)no1 |  | inconclusive: 14%
CCOC(=O)c1c(C)n(C)c2c(C)cc(O)c(OC(=O)CC)c12 |  | inconclusive: 0.323%
COc1ccc(C(CNC(=O)CCNC(=O)c2ccccc2Cl)N2CCCC2)cc1 (configuration not stated) | inconclusive: 10.3 µM [activator, partial curve] | 
COc1ccc(OC)c2c(C)cc(N3CCN(C(=O)c4ccc(F)cc4)CC3)nc12 |  | inconclusive: 71.5%
COc1ccc(-c2cc(=O)oc3cc(OCC(=O)NCc4ccccn4)ccc23)cc1 |  | inconclusive: -37.1%
COc1cccc(OC)c1C(=O)NC(=S)NCc1ccco1 |  | inconclusive: 24.9%
CCCCN(CCCC)CC(O)COc1ccccc1Br (configuration not stated) | inconclusive: 0.0184 µM [falling, full curve] | 
COc1ccc(N2CCN(S(=O)(=O)c3ccc4c(c3)NC(=O)C(C)C(=O)N4)CC2)cc1 (configuration not stated) | inconclusive: 2.59 µM [falling, partial curve] | 
O=S(=O)(Nc1cc(Cl)ccc1-n1cncn1)c1ccc(F)cc1 |  | inconclusive: 8.22%
CCCN1C(=O)C(NC(=O)c2ccncc2)(C(F)(F)F)C2=C1CC(C)(C)CC2=O (configuration not stated) |  | inconclusive: -61.4%
COc1ccc(C)cc1S(=O)(=O)N(C)CC(=O)NC1CCCCC1 |  | inconclusive: 14.8%
Cc1cc(OCC(=O)NC(C)C)cc(C)c1Br | inconclusive: 8.2 µM [activator, partial curve] | 
COc1ccc(CNC(=O)C2CCN(S(=O)(=O)c3cccnc3)CC2)cc1 | inconclusive: 20.6 µM [activator, partial curve] | 
O=C(CSc1nnc(-c2ccccn2)n1Cc1ccco1)c1ccc(-c2ccccc2)cc1 |  | inconclusive: 42.6%
O=C(CSc1n[nH]c(=O)n1C1CC1)NCc1ccccc1Cl |  | inconclusive: -60.3%
COc1ccccc1C(=O)NC(=O)COC(=O)Cc1n[nH]c(=O)c2ccccc12 |  | inconclusive: 37.3%
Cc1csc(Sc2ccc(C(=O)OCC(=O)Nc3ccc(OC(F)(F)F)cc3)cc2[N+](=O)[O-])n1 |  | inconclusive: 0.995%
CC(=O)N(CCCNC(=O)c1ccccc1)C(=O)c1ccccc1 | inconclusive: 1.46 µM [falling, full curve, poor fit] | 
COc1ccc(CNC(=O)COC(=O)CC2CCCC2)cc1 |  | inconclusive: -5.03%
O=C(c1c(O)cc(O)cc1O)C1c2c(cc(O)c3c2O[C@H](c2ccc(O)cc2)[C@@H](O)C3)OC1c1ccc(O)cc1 (some centres not stated) | inconclusive: 29.1 µM [activator, single point] | 
CCOc1ccc(N2CC(C(=O)Nc3nnc(Cc4ccccc4)s3)CC2=O)cc1 (configuration not stated) | inconclusive: 29.1 µM [activator, single point] | 
O=C(CN(C(=O)CNC(=O)c1ccco1)c1ccccc1F)NC1CCCCC1 |  | inconclusive: 4.18%

SMILES | Potency | lipid storage change, negative = inhibition
O=C(COc1ccc(C(=O)O)cc1)Nc1cccc(C(F)(F)F)c1 |  | inconclusive: -13.4%
C/C(=N/NC(=O)c1ccncc1)c1ccccc1 |  | inactive
Nc1cc(Oc2cccnc2)cc([N+](=O)[O-])c1 |  | inconclusive: -6.83%
Cc1ccc(C(=O)CCC(=O)Nc2ccccc2C)c(C)c1 | inconclusive: 29.1 µM [activator, single point] | 
N#Cc1cc2cc3ccccc3nc2n2c(=O)c3ccccc3nc12 |  | inconclusive: 5.94%
COc1ccccc1C(=O)NCCOc1ccc(C(C)(C)C)cc1 | inconclusive: 23.1 µM [falling, single point] | 
Cc1ccc(-n2c(Cc3cccs3)nnc2SCC(=O)OC(C)C)cc1 | inconclusive: 0.082 µM [falling, full curve, poor fit] | 
CC12CCC(C(=O)Nc3ccncc3)(CC1O)C2(C)C (configuration not stated) |  | inconclusive: -50.5%
COc1ccc(C(=O)N[C@H](C(=O)Nc2ccc(S(=O)(=O)N3CCOCC3)cc2)C(C)C)cc1 |  | inconclusive: -3.74%
O=C(CCN1C(=O)COc2ccccc21)NCCCN1CCCC1 | inconclusive: 29.1 µM [activator, single point] | 
O=C1C(N2CCOCC2)=C(n2nnc3ccccc32)C(=O)c2ccccc21 | inconclusive: 16.4 µM [cytotoxic, partial curve] | 
O=C(CCCN1C(=O)/C(=C/c2cccs2)SC1=S)Nc1cc([N+](=O)[O-])ccc1O | inconclusive: 18.4 µM [activator, single point] | 
Cc1ccc2c(c1)[C@H]1OCC[C@H]1[C@@H](c1ccncc1)N2 |  | inconclusive: -33.6%
CC(C)NC(=O)c1ccc2c(c1)N(CC(=O)N1CCOCC1)C(=O)C(C)(C)O2 |  | inconclusive: -1.03%
CCOc1cccc(-c2c(C(=O)N/N=C(\C)c3ccncc3)nnn2-c2nonc2N)c1 |  | inconclusive: -100%
Cc1ccccc1NC(=O)NCCc1c[nH]c2ccccc12 |  | inconclusive: 32.4%
Cc1ccc(C2(C)NC(=O)N(CC(=O)Nc3ccc4[nH]c(=O)[nH]c4c3)C2=O)cc1 (configuration not stated) |  | inconclusive: 39.1%
COc1cc(OC)cc(-c2nnc(SCc3cccnc3)o2)c1 | inconclusive: 0.82 µM [activator, full curve, poor fit] | 
O=C(CNCc1ccc(F)cc1)Nc1ccc(C(=O)N2CCCCC2)cc1 |  | inconclusive: 53.3%
O=C(O)CC12CC3CC(C1)CC(n1ncc(NCc4ccc(F)cc4)c(Cl)c1=O)(C3)C2 |  | inconclusive: -4.58%
S=C(NCc1ccco1)Nc1ccc(Cl)c(Cl)c1 |  | inconclusive: -29%
CCN(CC)S(=O)(=O)c1ccc(C(=O)N(c2ccc(C)cc2)C2C=CS(=O)(=O)C2)cc1 (configuration not stated) | inconclusive: 29.1 µM [activator, single point] | 
C=CCN(c1ccc(C(=O)Nc2ccc(NC(C)=O)cc2)cc1)S(C)(=O)=O |  | inconclusive: 2.54%
N#Cc1ccc(COc2cccnc2[N+](=O)[O-])cc1 |  | inconclusive: -179%
Cc1cccc(NC(=O)C2CCN(S(=O)(=O)c3ccc(Cl)cc3)CC2)n1 |  | inconclusive
